Measured values reported in patent publication US20110195896A1, “ISOFORM-SPECIFIC INSULIN ANALOGUES” (CASE WESTERN RESERVE UNIVERSITY, priority 2008, published 2011).
Results are given in words; binding and its absence hold for the method and conditions named. Some binding calls cover weakened binding; strength is not graded here.

Sequences of proteins named here, by UniProt entry; tags and fusion partners are left off. Residues count along the entry.
UniProt P08069, residues 31-1367: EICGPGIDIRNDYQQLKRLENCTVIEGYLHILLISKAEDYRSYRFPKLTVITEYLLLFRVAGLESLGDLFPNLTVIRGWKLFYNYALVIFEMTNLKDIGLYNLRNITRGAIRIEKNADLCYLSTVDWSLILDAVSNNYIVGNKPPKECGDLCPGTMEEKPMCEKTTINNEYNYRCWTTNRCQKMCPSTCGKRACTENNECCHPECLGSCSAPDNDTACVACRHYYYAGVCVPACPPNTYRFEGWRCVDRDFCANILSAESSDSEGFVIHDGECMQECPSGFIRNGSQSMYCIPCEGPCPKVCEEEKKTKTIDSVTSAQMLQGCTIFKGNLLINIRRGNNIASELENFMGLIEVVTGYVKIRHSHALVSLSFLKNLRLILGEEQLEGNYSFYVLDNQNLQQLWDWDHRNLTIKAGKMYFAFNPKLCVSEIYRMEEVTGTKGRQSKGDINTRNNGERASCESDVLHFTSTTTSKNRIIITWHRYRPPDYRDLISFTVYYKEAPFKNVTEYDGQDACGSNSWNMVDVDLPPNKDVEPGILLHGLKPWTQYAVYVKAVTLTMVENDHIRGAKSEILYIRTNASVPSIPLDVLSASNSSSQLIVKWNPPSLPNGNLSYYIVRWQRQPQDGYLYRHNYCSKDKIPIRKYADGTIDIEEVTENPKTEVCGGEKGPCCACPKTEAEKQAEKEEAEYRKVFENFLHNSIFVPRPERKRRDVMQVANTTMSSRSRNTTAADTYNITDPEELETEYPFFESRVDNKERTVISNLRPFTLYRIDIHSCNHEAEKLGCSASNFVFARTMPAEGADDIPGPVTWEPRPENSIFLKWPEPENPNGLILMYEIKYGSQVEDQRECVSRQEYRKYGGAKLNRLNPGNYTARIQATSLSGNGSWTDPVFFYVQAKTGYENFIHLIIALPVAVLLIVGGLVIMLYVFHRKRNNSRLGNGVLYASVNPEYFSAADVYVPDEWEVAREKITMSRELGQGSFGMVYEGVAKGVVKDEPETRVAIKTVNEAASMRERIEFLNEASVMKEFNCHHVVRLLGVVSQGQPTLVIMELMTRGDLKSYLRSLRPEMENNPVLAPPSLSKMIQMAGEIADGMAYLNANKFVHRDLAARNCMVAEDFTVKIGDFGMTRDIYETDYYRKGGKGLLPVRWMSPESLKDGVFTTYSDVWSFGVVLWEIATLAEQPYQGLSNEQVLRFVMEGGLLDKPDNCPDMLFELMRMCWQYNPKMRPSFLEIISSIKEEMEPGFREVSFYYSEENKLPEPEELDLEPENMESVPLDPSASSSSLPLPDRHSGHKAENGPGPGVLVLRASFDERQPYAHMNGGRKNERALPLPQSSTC

Key:
[1] = molecular target: Type I IGF receptor (UniProt P08069); assay: competitive displacement assay on IGFR
[2] = molecular target: Type I IGF receptor (UniProt P08069); assay: competitive displacement of 125I-IGF-1 from IGFR

binding [1] | binding [2] | Substance
binds | – | His^A8, Asp^B10, Asp^B28, Pro^B29 SCI (from UniProt P30407 25-110) (ligand)
– | binds | [His^A8, Asp^B28, Pro^B29]-SCI (57-mer single-chain insulin analogue, linker GGGPRR) (from UniProt P30407 25-110) (ligand)
